Test results: PubChem BioAssay AID2685 (National Center for Advancing Translational Sciences (NCATS), 2010)
The list shows a part of the results. Further columns of the screen follow, without active or inactive calls. The list favours compounds with an active or inconclusive main result. The note in brackets gives the kind of curve behind each potency; many fits are weak.

Experiment: qHTS Assay for Lipid Storage Modulators in Drosophila S3 Cells;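 as to cell number change: cells counted by Cell Tracker Red CMTPX staining in the red channel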
Conditions: BODIPY lipid droplet fluorescence, 18-24 h; for cell number change: measured here: cell count max response, cells fed with added oleic acid
How it was run: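 Drosophila S3 cells got compounds at several concentrations plus oleic acid (400 uM solution). Laser-scanning cytometry with 488 nm excitation read lipid droplets at 500-530 nm and cells at 575-640 nm. Percent activity was relative to 20 uM Triacsin C.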

[1] = measured here: lipid fluorescence (Fed channel) AC50, cells fed with added oleic acid
[2] = measured here: cell number channel AC50, cells fed with added oleic acid

Structure (SMILES) | cell number change [%] | AC50 [1] | AC50 [2]
COC(=O)[C@@H](Cc1c[nH]c2ccccc12)NC(=O)C1CCCN(S(=O)(=O)c2ccc(C)cc2)C1 (some centres undefined) | 4.26 | – | –
COc1ccc(CN2CC(C(=O)NCCC3=CCCCC3)CC2=O)cc1 (centres undefined) | -14.6 | 16.4 µM [falling, single point] | –
COc1ccc(N2CCN(CCCNS(=O)(=O)c3ccc4c(c3)oc(=O)n4C)CC2)cc1 | -13.2 | – | 0.58 µM [rising, single point]
Clc1ccc(OCCCn2ccnc2)c(Br)c1 | 6.35 | 0.82 µM [rising, full curve] | –
Cn1cc(CCCC(=O)NCc2ccccc2)c2ccccc21 | 9.93 | – | –
N#Cc1ccccc1OCC(=O)Nc1ccccc1C(=O)NC1CC1 | 3.28 | – | 6.51 µM [falling, single point]
COC(=O)c1cc2c(cc1[N+](=O)[O-])OCO2 | 59.3 | 29.1 µM [rising, single point] | 25.9 µM [rising, single point]
NC(=O)C[C@@H]1N[C@]2(C(=O)Nc3ccccc32)[C@@H]2C(=O)N(c3cc(C(F)(F)F)ccc3Cl)C(=O)[C@H]12 | 5.61 | 4.11 µM [falling, single point] | –
COc1ccc(CNC(=O)C(c2ccco2)N(C(=O)c2snc(C(N)=O)c2N)c2ccccc2OC)cc1 (centres undefined) | -3.85 | 29.1 µM [rising, partial curve, poor fit] | –
CN1/C(=C\C(=O)CSc2ncn[nH]2)C(C)(C)c2ccccc21 | 12.4 | 18.4 µM [rising, partial curve] | –
COc1ccccc1CNC(=O)C(=O)NCC1CCCN1S(=O)(=O)c1cccs1 (centres undefined) | -10.4 | – | –
COc1ccc(-n2c(SC3CCOC3=O)nc3ccccc3c2=O)cc1Cl (centres undefined) | 211 | 29.1 µM [rising, partial curve] | 18.4 µM [rising, partial curve]
COc1ccccc1-c1ccc(SCc2ccc(F)cc2)nn1 | 17.9 | – | 0.00461 µM [falling, full curve, poor fit]
Cc1cccc(N2CCN(C(=O)Cn3cccc3C(=O)c3ccccc3)CC2)c1C | 81 | 0.82 µM [falling, single point] | 20.6 µM [rising, single point]
CCOC(=O)C=Nc1c(N)n(C)c(=O)n(C)c1=O | 9.99 | 29.1 µM [falling, single point] | –
Nc1ccc(N2CCCCC2)c(Cl)c1 | -5.73 | 2.91 µM [falling, single point] | –
Cc1cc(C)n2nc(C(=O)OCC(=O)NCc3ccccc3)nc2n1 | 14.9 | 1.46 µM [falling, single point] | –

Some of the entries so far, as a markdown table.

| Structure (SMILES) | cell number change [%] | AC50 [1] | AC50 [2] |
| --- | --- | --- | --- |
| CN1/C(=C\C(=O)CSc2ncn[nH]2)C(C)(C)c2ccccc21 | 12.4 | 18.4 µM [rising, partial curve] | – |
| Cc1cccc(N2CCN(C(=O)Cn3cccc3C(=O)c3ccccc3)CC2)c1C | 81 | 0.82 µM [falling, single point] | 20.6 µM [rising, single point] |
